Source: PubChem BioAssay AID1259308 (NCATS, 2017)
Here is a random part of about 59,000 reagents. In the full data, about 1,510 (2.6%) got an active call. 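Calls use total luciferase alone and ignore viability, so some active siRNAs may act by altering cell number.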 Unmarked entries are inactive. Reagents against one gene are numbered here. Further read-outs or replicates are left out here.

Purpose: 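Knock-downs that increase output of a recombinant reporter protein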 (primary screen)
Cell system: human HEK293 embryonic kidney cells stably expressing firefly luciferase (HEK-CMV-Luc2-Hygro)
Reagents: single siRNA against human genes, 0.8 pmol siRNA per well
Timing: 72 h
Read-out: 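Reporter luminescence and viable-cell signal on separate replicate plates, given as percent of non-targeting control and median/MAD z-scores, plus per-cell luciferase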
Direction: total luciferase, z-score: higher = more reporter protein produced
Active means: 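Active when the median/MAD z-score for overall luciferase is greater than 3; a gene was taken forward for validation with new siRNAs if at least two of its three siRNAs passed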
Calls: active = raised luciferase; inactive = no rise

no.	gene symbol	reagent	total luciferase, z-score
1	IL4 (interleukin 4)	1	1.19
2	IL4 (interleukin 4)	2	0.328
3	IL4 (interleukin 4)	3	-0.468
4	TSN (translin)	1	2.87
5	TSN (translin)	2	0.672
6	TSN (translin)	3	-0.438
7	MNX1 (motor neuron and pancreas homeobox 1)	1	-0.125
8	MNX1 (motor neuron and pancreas homeobox 1)	2	-0.385
9	MNX1 (motor neuron and pancreas homeobox 1)	3	-1.25
10	GUCY2F (guanylate cyclase 2F, retinal)	1	-0.532
11	GUCY2F (guanylate cyclase 2F, retinal)	2	-2.01
12	GUCY2F (guanylate cyclase 2F, retinal)	3	-0.0453
13	HTR1F (5-hydroxytryptamine receptor 1F)	1	-0.588
14	HTR1F (5-hydroxytryptamine receptor 1F)	2	-1.22
15	HTR1F (5-hydroxytryptamine receptor 1F)	3	-0.494
16	CCL4 (C-C motif chemokine ligand 4)	1	-2.4
17	CCL4 (C-C motif chemokine ligand 4)	2	0.658
18	CCL4 (C-C motif chemokine ligand 4)	3	0.827
19	UNK (unk zinc finger)	1	2.66
20	UNK (unk zinc finger)	2	0.113
21	UNK (unk zinc finger)	3	-0.00719
22	PPP1R11 (protein phosphatase 1 regulatory inhibitor subunit 11)	1	-1.53
23	PPP1R11 (protein phosphatase 1 regulatory inhibitor subunit 11)	2	1.4
24	PPP1R11 (protein phosphatase 1 regulatory inhibitor subunit 11)	3	1.47
25	UBE2Q2 (ubiquitin conjugating enzyme E2 Q2)	1	-0.861
26	UBE2Q2 (ubiquitin conjugating enzyme E2 Q2)	2	1.06
27	UBE2Q2 (ubiquitin conjugating enzyme E2 Q2)	3	-0.915
28	NUDT21 (nudix hydrolase 21)	1	-0.721
29	NUDT21 (nudix hydrolase 21)	2	7.21 (active)
30	NUDT21 (nudix hydrolase 21)	3	0.275
31	CD63 (CD63 molecule)	1	0.707
32	CD63 (CD63 molecule)	2	-0.247
33	CD63 (CD63 molecule)	3	-0.602
34	LRRIQ4 (leucine rich repeats and IQ motif containing 4)	1	-0.541
35	LRRIQ4 (leucine rich repeats and IQ motif containing 4)	2	-0.623
36	LRRIQ4 (leucine rich repeats and IQ motif containing 4)	3	-0.414

4 entries from above in another layout:
HTR1F (5-hydroxytryptamine receptor 1F) #1
- total luciferase, z-score: -0.588

HTR1F (5-hydroxytryptamine receptor 1F) #2
- total luciferase, z-score: -1.22

HTR1F (5-hydroxytryptamine receptor 1F) #3
- total luciferase, z-score: -0.494

CCL4 (C-C motif chemokine ligand 4) #1
- total luciferase, z-score: -2.4

The results go on:
no.	gene symbol	reagent	total luciferase, z-score
37	STARD7-AS1 (STARD7 antisense RNA 1)	1	-0.398
38	STARD7-AS1 (STARD7 antisense RNA 1)	2	0.157
39	STARD7-AS1 (STARD7 antisense RNA 1)	3	0.822
40	SQOR (sulfide quinone oxidoreductase)	1	0.096
41	SQOR (sulfide quinone oxidoreductase)	2	0.0836
42	SQOR (sulfide quinone oxidoreductase)	3	-0.748
43	LYPD6B (LY6/PLAUR domain containing 6B)	1	0.305
44	LYPD6B (LY6/PLAUR domain containing 6B)	2	-0.168
45	LYPD6B (LY6/PLAUR domain containing 6B)	3	0.568
46	C3orf62 (chromosome 3 open reading frame 62)	1	-1.3
47	C3orf62 (chromosome 3 open reading frame 62)	2	-1.83
48	C3orf62 (chromosome 3 open reading frame 62)	3	-2.67
49	CBFB (core-binding factor subunit beta)	1	-0.897
50	CBFB (core-binding factor subunit beta)	2	0.87
51	CBFB (core-binding factor subunit beta)	3	-1.43
52	ADH4 (alcohol dehydrogenase 4 (class II), pi polypeptide)	1	-0.944
53	ADH4 (alcohol dehydrogenase 4 (class II), pi polypeptide)	2	2.98
54	ADH4 (alcohol dehydrogenase 4 (class II), pi polypeptide)	3	-0.516
55	CEP19 (centrosomal protein 19)	1	-0.216
56	CEP19 (centrosomal protein 19)	2	-1.44
57	CEP19 (centrosomal protein 19)	3	-0.249
58	HOXC5 (homeobox C5)	1	0.46
59	HOXC5 (homeobox C5)	2	0.203
60	HOXC5 (homeobox C5)	3	0.678
61	CPSF3 (cleavage and polyadenylation specific factor 3)	1	-2.22
62	CPSF3 (cleavage and polyadenylation specific factor 3)	2	-1.97
63	CPSF3 (cleavage and polyadenylation specific factor 3)	3	-1.68
64	TGM1 (transglutaminase 1)	1	-1.57
65	TGM1 (transglutaminase 1)	2	0.388
66	TGM1 (transglutaminase 1)	3	2.24
67	MSH4 (mutS homolog 4)	1	0.166
68	MSH4 (mutS homolog 4)	2	-0.138
69	MSH4 (mutS homolog 4)	3	1.89
70	F11 (coagulation factor XI)	1	0.217
71	F11 (coagulation factor XI)	2	-0.838
72	F11 (coagulation factor XI)	3	-0.0353
73	DDAH2 (DDAH family member 2, ADMA-independent)	1	0.452
74	DDAH2 (DDAH family member 2, ADMA-independent)	2	-0.845
75	DDAH2 (DDAH family member 2, ADMA-independent)	3	-0.742
